Experimental data from US20260008839A1 (BRIGHAM AND WOMEN S HOSPITAL, published 2026).
Results are given in words; binding and its absence hold for the method and conditions named. Some entries that bind do so weakly or less than the wild type.

By UniProt entry, the sequences of proteins in these tests, tags left out. Residues count along the entry.
UniProt Q9NR61, residues 27-529: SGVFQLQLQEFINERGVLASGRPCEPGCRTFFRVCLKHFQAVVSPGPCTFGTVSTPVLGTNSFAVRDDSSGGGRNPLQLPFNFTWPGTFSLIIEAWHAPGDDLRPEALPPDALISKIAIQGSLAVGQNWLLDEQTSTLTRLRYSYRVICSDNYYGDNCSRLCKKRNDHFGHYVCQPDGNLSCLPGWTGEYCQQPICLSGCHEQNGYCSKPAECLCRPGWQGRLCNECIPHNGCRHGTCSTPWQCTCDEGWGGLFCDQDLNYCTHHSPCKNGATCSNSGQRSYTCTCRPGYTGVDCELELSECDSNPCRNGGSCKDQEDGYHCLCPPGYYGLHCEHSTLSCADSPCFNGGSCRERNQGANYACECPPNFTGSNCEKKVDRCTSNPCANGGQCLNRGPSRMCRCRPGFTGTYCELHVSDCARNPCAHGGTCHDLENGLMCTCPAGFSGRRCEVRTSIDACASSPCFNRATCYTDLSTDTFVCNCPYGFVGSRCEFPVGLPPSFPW

Legend:
human DLL4 (human) [1] = target: human DLL4 (human) (UniProt Q9NR61); assay: SPR Biacore 3000, full kinetics, conclusion
human DLL4 (human) [2] = target: human DLL4 (human) (UniProt Q9NR61); assay: SPR Biacore 3000, human DLL4 amine-coupled to CM5 chip, antibody injected
porcine DLL4 (porcine) [3] = assay: SPR Biacore 3000, porcine DLL4 amine-coupled to CM5 chip, antibody injected
human DLL4 (human) [4] = target: human DLL4 (human) (UniProt Q9NR61); assay: SPR, Biacore 3000, 25 C: human DLL4 amine-coupled to a CM5 chip, antibody injected as analyte
porcine DLL4 (porcine) [5] = assay: SPR, Biacore 3000, 25 C: porcine DLL4 amine-coupled to a CM5 chip, antibody injected as analyte
Dll4 [6] = assay: flow cytometry, blocking, hybridoma supernatants; sheet title as in FIG. 1, legend paragraph 45 names no cells; blocked ligand NOTCH1-Fc as in FIG. 1
Dll4 [7] = assay: flow cytometry, blocking: DLL4-expressing Cf2Th cells + purified antibody, then NOTCH1-Fc and PE anti-IgG Fc; blocked ligand NOTCH1-Fc; three experiments
Dll4 [8] = assay: flow cytometry, blocking: DLL4-expressing Cf2Th cells + 8D2 supernatant ('serum'), then recombinant NOTCH1-Fc and PE anti-IgG Fc; blocked ligand NOTCH1-Fc
Dll4 [9] = assay: flow cytometry, blocking: DLL4-expressing HEK293T cells + purified antibody, then NOTCH1-Fc and PE anti-IgG Fc; blocked ligand NOTCH1-Fc; three experiments
Dll4 [10] = assay: flow cytometry, blocking: DLL4-expressing Cf2Th cells + supernatant, then NOTCH1-Fc and PE anti-IgG Fc; blocked ligand NOTCH1-Fc; three determinations merged
porcine DLL4 (porcine) [11] = assay: SPR, Biacore 3000, 25 C: porcine DLL4 amine-coupled to a CM5 chip, 8D2 injected three times first, then 8C2
Dll4 [12] = assay: flow cytometry, blocking: DLL4-expressing Cf2Th cells + purified 8C2, then recombinant NOTCH1-Fc and PE anti-IgG Fc; blocked ligand NOTCH1-Fc
Dll4 [13] = assay: flow cytometry, blocking: DLL4-expressing HEK293T cells + purified 8C2, then recombinant NOTCH1-Fc and PE anti-IgG Fc; blocked ligand NOTCH1-Fc

binding (human DLL4 (human) [1])	binding (human DLL4 (human) [2])	binding (porcine DLL4 (porcine) [3])	binding (human DLL4 (human) [4])	binding (porcine DLL4 (porcine) [5])	binding (Dll4 [6])	binding (Dll4 [7])	binding (Dll4 [8])	binding (Dll4 [9])	binding (Dll4 [10])	binding (porcine DLL4 (porcine) [11])	binding (Dll4 [12])	binding (Dll4 [13])	Binder
binds	binds	binds	binds	binds	binds	binds	binds	binds	binds				Monoclonal Antibody 8D2 (antibody, V domains shown, Rat hybridoma monoclonal antibody, IgG type (captured by goat anti-rat Fc); also called BMH-8D2-D10; rat 8D2) VH: SGGGLVQPGRSMKLSCAASGFTFSNYDMAWVRQDPKKGLEWVATISYDGRSTYYRDSVKGRFTISRDNAKSTLYLQMDSLRSEDTATYYCKDYDGHYHPYGMEAWGQGISVTVSS VL: DIVLTQSPALAVTLGQRATISCRASQSVTISNYNLMQWYQQRPGRQPKLLIYDASNLASGIPARFSGSGSGTDFTLTIDPVQADDIATYYCQQSRDDPRTFGGGTKLELR
					binds				binds				5D7 (antibody, V domains shown) VH: QVQLKESGPGLVQPSETLSLTCTVSGFSLTRYAVNWVRQPPGKGLEWMGRVMDDGDTSHNSALNSRLNISRDTSKNQVFLKMNSLQTEDPGTYFCAREGDGFSWYGMDAWGQGTSVTVSS VL: DIVLTQSPALAVSLGQRATISCRASQSVSISSYNLMQWYQQKPGHQPKLLVYAASNLASGIPARFSGSGSGTDFALTIDPVQADDVATYHCQQSKDHPPTFGGGTKLELK
				binds	binds	binds		binds	binds	binds	binds	binds	Monoclonal Antibody 8C2 (antibody, V domains shown, Rat hybridoma monoclonal antibody, IgG type (captured by goat anti-rat Fc); also called BMH-8C2-D10; BMH-8C2-D4) VH: QVQLKESGPGLVQPSQTLSLTCTVSGISISIYGVSWVRQPPGKGLEWMGGIWGDGSTDYNSALKSRLSLSRDTSKSQVFLKMNSLQTEDTAIYFCTLSGDFDYWGHGVLVTVSS VL: DIQLTQSPASLSASLDEIVTITCQASLDIGNWLAWYQQKTGKSPQLLIYGATSLAGGVPSRFSGSRSGTQYSLKISKLQVEDTGIYYCLQHYRAPFTFGSGTKLEI
					binds	binds			binds				Monoclonal Antibody 2H10 (antibody, V domains shown, Rat hybridoma monoclonal antibody, IgG type (captured by goat anti-rat Fc); also called BMH-2H10-A7) VH: QVQVKESGPGLVQPSQTLSLTCIVSGFSLSSYHVSWVRQPPGKSLVWMGTIWAGGGTNYNSAVQSRLSISRDTSKSQVFLKVNSLQPEDTGTYYCARHYYDGYYHGPYFDYWGQGVMVTV VL: SPASLSASLGETVTFECRASEDIYTNLAWYQQKPGNSPQLLIYDANTLADGVPSRFSGSGSGTQFSLKINSLQSEDVASYFCQQYDSYPWTFGGGTKLELRR
